PubChem BioAssay AID1259405 – NCATS, 2018
The whole screen tested about 50,000 reagents; shown is a part drawn at random. About 4,000 of all reagents (8%) were called active. 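Mouse siRNA library applied to hamster cells; one well for each siRNA.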 A number with no mark means an inactive call. The numbers tell different reagents against one gene apart.

Purpose: 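Mouse-designed siRNAs used to find CHO productivity engineering targets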 (primary screen)
System: Chinese hamster CHO-K1 ovary cells with stable secreted eGFP expression
Reagent: single siRNA against mouse genes, 0.8 pmol siRNA per well (2 µl of 400 nM stock)
Time to read-out: 3 days
Read-out: 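Per-well intracellular GFP measured by laser scanning cytometry, plus viability from ATP luminescence, each relative to plate median of non-targeting control wells, in %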
Reading the numbers: GFP, % of control: higher = more GFP per well, higher productivity; viability (ATP), % of control: higher = more viable cells (more ATP)
Rule for the call: 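Called active when intracellular GFP, relative to negative control, is at or above 120%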

Defb13 (defensin beta 13) #1
- GFP, % of control: 57.7
- viability (ATP), % of control: 78.5

Defb13 (defensin beta 13) #2
- GFP, % of control: 61.3
- viability (ATP), % of control: 114

Defb13 (defensin beta 13) #3
- GFP, % of control: 99.3
- viability (ATP), % of control: 78

Tns2 (tensin 2) #1
- GFP, % of control: 65.7
- viability (ATP), % of control: 79.8

Tns2 (tensin 2) #2
- GFP, % of control: 57
- viability (ATP), % of control: 67.4

Tns2 (tensin 2) #3
- GFP, % of control: 92
- viability (ATP), % of control: 71.9

Just “GFP, % of control” (2 entries from above):
Defb13 (defensin beta 13) #2: 61.3
Defb13 (defensin beta 13) #3: 99.3

Next results follow:
Msr1 (macrophage scavenger receptor 1) #1
- GFP, % of control: 149 (active)
- viability (ATP), % of control: 78.9

Msr1 (macrophage scavenger receptor 1) #2
- GFP, % of control: 83.8
- viability (ATP), % of control: 67

Msr1 (macrophage scavenger receptor 1) #3
- GFP, % of control: 106
- viability (ATP), % of control: 101

Atp10b (ATPase, class V, type 10B) #1
- GFP, % of control: 93
- viability (ATP), % of control: 68.7

Atp10b (ATPase, class V, type 10B) #2
- GFP, % of control: 83.7
- viability (ATP), % of control: 101

Atp10b (ATPase, class V, type 10B) #3
- GFP, % of control: 59.5
- viability (ATP), % of control: 49.3

Fam78a (family with sequence similarity 78, member A) #1
- GFP, % of control: 99.8
- viability (ATP), % of control: 68.5

Fam78a (family with sequence similarity 78, member A) #2
- GFP, % of control: 66.8
- viability (ATP), % of control: 68.5

Fam78a (family with sequence similarity 78, member A) #3
- GFP, % of control: 63.7
- viability (ATP), % of control: 85.6

Afm (afamin) #1
- GFP, % of control: 90.7
- viability (ATP), % of control: 102

Afm (afamin) #2
- GFP, % of control: 86.3
- viability (ATP), % of control: 121

Afm (afamin) #3
- GFP, % of control: 91.4
- viability (ATP), % of control: 66.3
